Laboratory results from paper PMC8763653.
No constants are given. Whether binding was seen depends on the method and setting. Binding seen in cells or lysates may run through a third protein. Some results given as binding are weak or reduced against the parent protein; the word gives no strength.

By UniProt entry, the sequences of proteins in these tests, tags left out. Where a name states a change or a piece, a line headed by the entry shows the natural chain unless it says otherwise. Chains listed by the source or under a name are the forms on record and can include a tag or linker. Residues count along the entry.
UniProt Q14627, residues 27-380: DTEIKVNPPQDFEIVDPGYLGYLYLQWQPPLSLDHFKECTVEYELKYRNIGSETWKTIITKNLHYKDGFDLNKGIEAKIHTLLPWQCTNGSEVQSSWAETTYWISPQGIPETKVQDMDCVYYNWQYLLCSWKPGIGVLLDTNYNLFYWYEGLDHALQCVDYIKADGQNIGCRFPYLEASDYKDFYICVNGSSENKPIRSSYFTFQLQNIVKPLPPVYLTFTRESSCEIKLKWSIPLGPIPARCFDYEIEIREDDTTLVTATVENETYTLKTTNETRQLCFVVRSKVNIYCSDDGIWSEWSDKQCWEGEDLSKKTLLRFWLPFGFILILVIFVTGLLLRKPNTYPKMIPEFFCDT
6×Myc‐tagged human CHI3L1 (chitinase 3 like1), full length (P36222, residues 22-383): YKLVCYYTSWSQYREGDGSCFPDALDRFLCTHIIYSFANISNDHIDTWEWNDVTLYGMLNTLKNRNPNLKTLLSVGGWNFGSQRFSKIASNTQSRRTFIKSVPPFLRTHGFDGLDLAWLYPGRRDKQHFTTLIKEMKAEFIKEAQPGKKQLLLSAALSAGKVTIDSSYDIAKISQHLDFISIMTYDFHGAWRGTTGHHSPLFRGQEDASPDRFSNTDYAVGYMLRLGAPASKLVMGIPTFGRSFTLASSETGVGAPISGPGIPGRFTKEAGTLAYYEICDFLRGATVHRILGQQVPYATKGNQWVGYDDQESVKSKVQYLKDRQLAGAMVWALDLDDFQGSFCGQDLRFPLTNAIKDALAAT
6×Myc‐tagged human CHI3L1 Δ278‐294 (P36222, form named): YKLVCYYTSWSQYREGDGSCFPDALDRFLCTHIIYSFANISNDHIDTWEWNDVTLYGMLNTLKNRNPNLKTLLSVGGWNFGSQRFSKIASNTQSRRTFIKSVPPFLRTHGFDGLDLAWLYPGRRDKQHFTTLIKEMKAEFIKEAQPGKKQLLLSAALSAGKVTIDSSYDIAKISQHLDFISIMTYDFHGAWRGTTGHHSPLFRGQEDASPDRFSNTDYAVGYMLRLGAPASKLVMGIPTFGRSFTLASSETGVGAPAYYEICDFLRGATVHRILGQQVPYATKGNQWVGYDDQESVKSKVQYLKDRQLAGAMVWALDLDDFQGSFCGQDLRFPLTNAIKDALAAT

Tests used:
[1] = molecular target: T1, IL‐13Rα1 (human (endogenous in A549)) (UniProt P78552); assay: co-IP; A549 cells transfected with FL or Δ278‐294 CHI3L1‐6×Myc, with or without 5 μM K284 for 24 h; immunoprecipitation with anti‐IL‐13Rα1 IgG or anti‐IL‐13Rα2 IgG, blot with anti‐Myc IgG; NET‐NL lysis buffer (50 mM Tris pH 7.5, 5 mM EDTA, 150 mM NaCl, 1 mM DTT, 0.01% NP‐40), 4 °C overnight
T1 sequence: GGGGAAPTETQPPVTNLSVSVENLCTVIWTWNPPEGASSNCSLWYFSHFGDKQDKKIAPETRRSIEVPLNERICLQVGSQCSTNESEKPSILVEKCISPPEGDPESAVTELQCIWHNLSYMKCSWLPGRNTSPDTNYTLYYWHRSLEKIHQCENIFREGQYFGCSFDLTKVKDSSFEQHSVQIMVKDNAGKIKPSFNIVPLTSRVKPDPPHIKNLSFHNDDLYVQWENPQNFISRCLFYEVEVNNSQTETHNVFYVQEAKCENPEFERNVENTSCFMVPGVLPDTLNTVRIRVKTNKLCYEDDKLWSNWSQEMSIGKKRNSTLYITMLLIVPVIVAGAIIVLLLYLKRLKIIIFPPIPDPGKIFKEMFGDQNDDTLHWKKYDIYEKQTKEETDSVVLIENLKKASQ

[2] = molecular target: interleukin‐13 receptor subunit alpha‐2 (IL‐13Rα2) (human (endogenous in A549)) (UniProt Q14627); assay: as above

Row | Substance | binding [1] | binding [2]
1 | 6×Myc‐tagged human CHI3L1 (chitinase 3 like1), full length (from UniProt P36222 22-383) | binds | –
2 | 6×Myc‐tagged human CHI3L1 Δ278‐294 (from UniProt P36222 22-383) | – | binds
